This note sets out measurements from paper PMC7024175, “In Depth Analysis of Kinase Cross Screening Data to Identify CAMKK2 Inhibitory Scaffolds” (Molecules, 2020).

The structures appear in SMILES notation.

In the data set the test system is MRC kinase panel. Description: MRC kinase profiling panel, 1 µM. The class given is biochemical. As to conditions: profiled at MRC.

In the case of `O=C(O)c1ccc(-c2c[nH]c3ncc(-c4ccccc4)cc23)cc1C1CCCC1` [GSK650394], where the note is “85 kinases”, the S10 value is listed as 0.082. Further, the “number of kinases inhibited by more than 90%” value (of 85 kinases) is “seven”.
